Assay results taken from patent US20160157484A1, “NATURAL ANTIMICROBIAL COMPOSITIONS” (Lincoln Manufacturing Inc., priority 2011, published 2016).

Test: Ability to thicken a DEA/sulfate shampoo system without salt
Details: 5% added to DEA/sulfate shampoo system

Compound	Thicken DEA/Sulfate Shampoo Systems without salt
OCCCO [1,3 Propanediol]	No
Glycereth 2-Cocoate	No
